The record followed here is PubChem BioAssay AID1487 (National Center for Advancing Translational Sciences (NCATS), 2009).

Molecules are shown by their SMILES. Some of the results follow. Shown are side measurements of this screen, not its main read-out; they come without a call. Compounds called inactive in the main read-out are mostly missing here. Words in brackets tell the shape of the fitted curve; partial curves, single points and poor fits give uncertain potencies.

This experiment can be described thus: qHTS Assay for Modulators of Lamin A Splicing. The note with it: HeLa LMNA splicing GFP/RFP minigene ratio, 48 h. In a few lines: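 Read-out is the ratio of GFP to DsRed2 object intensity, acquired by 488 nm laser-scanning cytometry on HeLa lamin A-EGFP minigene reporter cells. Compound incubation 48 hrs at 37 °C in Opti-MEM with 2% FBS; DMSO 0.5% final.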
Setting [1] is: measured here: RFP viability control channel.
Setting [2] is: measured here: GFP splicing reporter channel.

As usually defined, the AC50 is the concentration giving half of the maximal activity seen. `O=C(Nc1cccc(Cl)c1)c1cccc(Oc2ccc([N+](=O)[O-])cc2Cl)c1`: the concentration at half-maximal activity (AC50) under setting [1] is 35.5 µM [rising, single point].

`O=C(NC(=S)Nc1ccccc1N1CCCCC1)c1cccs1`: under setting [1], the AC50 was 35.5 µM [rising, single point].

On to `O=C(CC1c2ccccc2Oc2ccccc21)N1CCN(c2ccccn2)CC1`, for which the AC50 under setting [2] is 22.4 µM [falling, single point] and the AC50 under setting [1] was 35.5 µM [falling, partial curve].

Take `Cn1c(C(C(=O)NCC2CCCO2)N(CCc2ccccc2)C(=O)Cn2nnc3ccccc32)nc2ccccc21` (stereo unspecified): the concentration at half-maximal activity (AC50) under setting [2] was 3.55 µM [falling, partial curve].

On to `COC(=O)C1=C(C)N(CCCC(=O)O)C(=O)NC1c1ccc(-c2ccccc2)cc1` (stereo unspecified), for which the AC50 under setting [1] was 8.91 µM [rising, partial curve, poor fit].

On to `CCCNC1=CC(=O)CC(C)(C)C1`, for which the AC50 runs as follows: under setting [2], 11.2 µM [rising, single point]; under setting [1], 12.6 µM [rising, partial curve].

Consider `COCCNCC1C(Oc2ccc(Cl)cc2)C(=O)N1c1ccccc1C` (stereo unspecified), for which, under setting [2], the AC50 is 35.5 µM [falling, single point].

Turning to `CCOC(=O)N1CCN(C(=O)CS(=O)(=O)c2cn(Cc3ccccc3Cl)c3ccccc23)CC1`, the AC50 is 5.62 µM [rising, single point] under setting [2] and 5.62 µM [rising, single point] under setting [1].

With `COc1ccc(Cc2nn3c(-c4ccccc4Br)nnc3s2)cc1`, the AC50 under setting [1] is 11.2 µM [rising, single point].

As to `COc1ccccc1C1SCCN1S(=O)(=O)c1cccc(C(F)(F)F)c1` (stereo unspecified), the AC50 under setting [1] was 12.6 µM [rising, single point].

`S=C(NCc1ccncc1)Nc1ccc(Cl)cc1`: the AC50 is, setting by setting: under setting [2], 15.8 µM [rising, single point]; under setting [1], 22.4 µM [rising, single point].

On to `O=C(c1ccc(Cl)c(S(=O)(=O)N2CCc3ccccc3C2)c1)N1CCN(c2ccccc2)CC1`, for which the AC50 under setting [2] was 14.1 µM [rising, single point] and the half-maximal activity concentration (AC50) under setting [1] was 25.1 µM [rising, single point].

Consider `O=C(Cn1c(=S)[nH]c2ccccc21)c1ccccc1`, for which the AC50 is 15.8 µM [rising, single point] under setting [2] and 31.6 µM [rising, single point] under setting [1].

For `CCOC(=O)CCNC(=O)Nc1ccc2nc(C)n(Cc3ccc(Cl)cc3)c(=O)c2c1`, the AC50 is 11.2 µM [rising, partial curve, poor fit] under setting [2] and 7.08 µM [rising, partial curve, poor fit] under setting [1].

Take `COc1ccc(/C=N/NC(=O)CSc2nnc(CCCc3ccc(OC)c(C)c3)o2)cc1`: the AC50 runs as follows: under setting [2], 14.1 µM [rising, single point]; under setting [1], 22.4 µM [rising, single point].

In the case of `c1coc(CNc2nc(-c3ccncc3)cs2)c1`, under setting [1], the AC50 was 25.1 µM [rising, single point].

Take `Cc1cc(C2CCCCC2)n(O)c(=O)c1`: the AC50 under setting [2] was 3.98 µM [falling, partial curve] and the AC50 under setting [1] is 7.94 µM [falling, partial curve].

Turning to `Cc1cc(C)cc(-n2c(SCC(=O)NCc3ccco3)nc3ccccc3c2=O)c1`, the AC50 under setting [1] was 35.5 µM [rising, single point].

For the compound `Cc1ccc(S(=O)(=O)CC(=O)Nc2sc3c(c2C#N)CCCC3)cc1`, under setting [1], the AC50 was 0.01 µM [falling, full curve, poor fit].

Turning to `COc1cccc(-c2nnc(SCN3C(=O)c4ccccc4C3=O)n2C)c1`, the AC50 under setting [2] was 0.00631 µM [falling, full curve, poor fit].

Consider `COc1ccc(-c2cn3c(C)c(C(=O)Nc4cccc(C)n4)sc3n2)cc1`, for which the AC50 is 14.1 µM [rising, partial curve] under setting [2] and 14.1 µM [rising, partial curve] under setting [1].

For the compound `O=C(Nc1ccc(Cl)cc1)N1CCC(c2nc(-c3ccc(F)cc3)no2)CC1`, the AC50 under setting [1] is 12.6 µM [rising, single point].

`Oc1ccccc1N=Cc1sc2ccccc2c1Cl`: the AC50 under setting [1] was 17.8 µM [rising, partial curve, poor fit].

Turning to `COc1ccc2[nH]cc(CCNc3cc(-c4ccoc4)ncn3)c2c1`, the AC50 is, setting by setting: under setting [2], 31.6 µM [rising, single point]; under setting [1], 20 µM [rising, single point].

For the compound `COC(=O)C1CCCCN1C(=O)CCc1nnc(CCc2c[nH]c3ccccc23)o1` (stereo unspecified), the AC50 is 0.112 µM [falling, full curve, poor fit] under setting [2] and 0.2 µM [falling, full curve] under setting [1].

Turning to `O=C(Nc1ccc(N2CCN(C(=O)c3ccccc3)CC2)cc1)c1ccc([N+](=O)[O-])o1`, the AC50 is, setting by setting: under setting [2], 5.62 µM [falling, partial curve]; under setting [1], 14.1 µM [falling, partial curve].

For the compound `COc1cccc(Cn2c(CNC(=O)Cc3cccc(C)c3)nc3cccnc32)c1`, the AC50 was 35.5 µM [falling, partial curve] under setting [2] and 1.58 µM [falling, full curve, poor fit] under setting [1].

As to `C=CCNc1nnc(SC2CC(=O)N(c3ccc(OCCC)cc3)C2=O)s1` (stereo unspecified), the AC50 under setting [1] was 31.6 µM [rising, single point].

Consider `O=C(Cc1ccccc1)Nc1ccc(SC(F)F)cc1`, for which the half-maximal activity concentration (AC50) under setting [1] was 8.91 µM [rising, partial curve, poor fit].

Take `Cc1cccc(OCCCC(=O)N2CCCc3ccccc32)c1C`: the AC50 under setting [1] was 35.5 µM [rising, single point].

For the compound `COc1ccc(-c2cc(-c3nnc(COC(=O)C4CC4C)o3)c3ccccc3n2)cc1OC` (stereo unspecified), under setting [1], the AC50 was 14.1 µM [rising, partial curve].

`Cc1cccc(-c2noc(-c3ccc(Cl)cc3[N+](=O)[O-])n2)c1`: the concentration at half-maximal activity (AC50) under setting [1] was 0.01 µM [rising, full curve, poor fit].

In the case of `N=c1c2c(-c3ccccc3)c(-c3ccccc3)n(Cc3ccco3)c2ncn1CCCn1ccnc1`, the AC50 by setting is: under setting [2], 15.8 µM [rising, partial curve, poor fit]; under setting [1], 8.91 µM [rising, partial curve].

In the case of `CCOC(=O)c1ccc(NC(=O)CN2CCN(Cc3ccccc3)CC2)cc1`, the AC50 reads like this: under setting [2], 7.08 µM [falling, full curve, poor fit]; under setting [1], 7.94 µM [falling, full curve, poor fit].

In the case of `CCCC(C)NC(=O)COc1ccc(S(=O)(=O)c2ccc(OCC(=O)NC(C)CCC)cc2)cc1` (stereo unspecified), the AC50 is, setting by setting: under setting [2], 12.6 µM [rising, single point]; under setting [1], 22.4 µM [rising, single point].

On to `CC(NC(=S)Nc1ccc(S(N)(=O)=O)cc1)c1ccc2c(c1)OCO2` (stereo unspecified), for which the AC50 runs as follows: under setting [2], 14.1 µM [rising, partial curve, poor fit]; under setting [1], 22.4 µM [rising, single point].

In the case of `Cc1ccc(S(=O)(=O)N2CCC(=O)N(C(COCc3ccc(Cl)cc3)Cc3ccccc3)CC2)cc1` (stereo unspecified), the concentration at half-maximal activity (AC50) is 17.8 µM [rising, single point] under setting [2] and 22.4 µM [rising, single point] under setting [1].

In the case of `Cc1nc(SCC(=O)N2CCc3ccccc3C2)c2c(C)c(C)sc2n1`, under setting [1], the AC50 is 14.1 µM [rising, single point].

Consider `O=C(Cc1ccccc1)N/N=C/c1ccc(Cl)cc1Cl`, for which the concentration at half-maximal activity (AC50) under setting [1] is 10 µM [rising, partial curve].

For `O=C(Nc1nn[nH]n1)c1ccc(S(=O)(=O)N2CCCCC2)cc1`, the AC50 under setting [1] was 0.562 µM [rising, full curve, poor fit].

In the case of `Cc1cccc(NC(=O)c2ccc(-n3cccn3)c([N+](=O)[O-])c2)c1`, the half-maximal activity concentration (AC50) under setting [2] was 35.5 µM [rising, single point] and the AC50 under setting [1] is 14.1 µM [rising, single point].

On to `N#Cc1nc(-c2ccc(OCc3ccccc3)cc2)oc1N1CCC(C(N)=O)CC1`, for which, under setting [2], the AC50 is 5.62 µM [rising, single point].

For the compound `S=C1SCN(Cc2ccccc2)CN1Cc1ccccc1`, the AC50 is 0.562 µM [falling, full curve, poor fit] under setting [2] and 0.0316 µM [falling, full curve, poor fit] under setting [1].

Consider `O=C(NC(NC(=S)Nc1c(Cl)cc(Cl)cc1Cl)C(Cl)(Cl)Cl)OCc1ccccc1` (stereo unspecified), for which, under setting [1], the AC50 was 2.82 µM [rising, full curve, poor fit].

For `Cc1cccc(C)c1OCCNC(=O)OCc1ccccc1`, under setting [2], the AC50 was 8.91 µM [falling, partial curve, poor fit].

For `Oc1ccc(Cl)cc1C1=NNC(c2ccc(Cl)cc2)C1` (stereo unspecified), under setting [1], the AC50 is 35.5 µM [rising, single point].

Regarding `CCOc1ccc2c(c1)OC(c1ccc(OC)cc1)(C(F)(F)F)NC2=O` (stereo unspecified), the half-maximal activity concentration (AC50) under setting [1] was 3.55 µM [rising, partial curve, poor fit].

On to `Cn1c(SCc2c(Cl)cccc2Cl)nnc1-c1cccs1`, for which the AC50 under setting [2] was 11.2 µM [rising, single point].

In the case of `CCn1c(/C=C/c2ccccc2)nc2ccccc2c1=O`, the AC50 under setting [2] was 35.5 µM [falling, single point].

Turning to `CC(OC(=O)c1cc(S(=O)(=O)Nc2ccc(F)cc2)ccc1Cl)C(=O)Nc1ccc2c(c1)OCCO2` (stereo unspecified), the AC50 under setting [1] is 35.5 µM [rising, single point].

Regarding `COc1cc(C(=O)Nc2nc3ccc(S(C)(=O)=O)cc3s2)cc(OC)c1C`, under setting [1], the AC50 was 4.47 µM [falling, single point].

Regarding `COc1cc(NC(=O)c2c(F)c(F)c(F)c(F)c2F)c(OC)cc1Cl`, the AC50 under setting [1] is 7.94 µM [rising, partial curve, poor fit].

With `Cn1c(SCC(=O)N2CCCc3ccccc32)nnc1-c1ccccc1`, the concentration at half-maximal activity (AC50) under setting [2] was 0.501 µM [rising, full curve].

For `NC(=O)c1nn(-c2ccccc2)nc1NC(=O)CSc1nnnn1-c1ccc(Cl)cc1`, the AC50 under setting [2] is 1.58 µM [rising, partial curve].

For the compound `O=C(CC(=O)c1cc(Cl)ccc1O)c1ccccc1`, under setting [1], the AC50 is 35.5 µM [rising, single point].
